These are yes or no findings as the source states them, for the method shown. Binding seen in cells or lysates may run through a third protein. Some entries that bind do so weakly or less than the wild type.

The text below walks through data of PMC11655846.

This assay addresses T1, ubiquitin-specific peptidase 39 (USP39) (human (endogenous in NCI-H1975)) (UniProt Q53GS9).
T1 sequence: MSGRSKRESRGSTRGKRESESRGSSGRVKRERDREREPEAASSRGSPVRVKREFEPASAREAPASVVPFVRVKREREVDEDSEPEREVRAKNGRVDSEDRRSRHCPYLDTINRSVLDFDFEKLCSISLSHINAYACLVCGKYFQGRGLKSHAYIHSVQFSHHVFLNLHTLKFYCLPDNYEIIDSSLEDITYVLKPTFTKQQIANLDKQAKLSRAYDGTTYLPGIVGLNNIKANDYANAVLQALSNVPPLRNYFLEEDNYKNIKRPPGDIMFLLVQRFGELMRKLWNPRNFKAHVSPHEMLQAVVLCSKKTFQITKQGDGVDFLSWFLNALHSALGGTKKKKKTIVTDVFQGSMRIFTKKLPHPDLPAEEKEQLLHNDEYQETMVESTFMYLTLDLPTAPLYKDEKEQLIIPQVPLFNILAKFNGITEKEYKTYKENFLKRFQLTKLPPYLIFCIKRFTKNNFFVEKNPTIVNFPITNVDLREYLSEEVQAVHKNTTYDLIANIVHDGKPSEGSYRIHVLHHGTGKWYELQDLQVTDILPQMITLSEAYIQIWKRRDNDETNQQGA
In words: co-IP; same immunoconjugates (USP39 antibody on Dynabeads Protein A, NCI-H1975 lysate in 1% digitonin, 150 mM NaCl, 25 mM Tris, pH 7.5); 10% analysed by immunoblotting. For orientation: A western blot detects proteins with antibodies after separation by electrophoresis.

B1: dihydrolipoamide S-acetyltransferase (DLAT) (enzyme, UniProt P10515 87-647)
chain: SLPPHQKVPLPSLSPTMQAGTIARWEKKEGDKINEGDLIAEVETDKATVGFESLEECYMAKILVAEGTRDVPIGAIICITVGKPEDIEAFKNYTLDSSAAPTPQAAPAPTPAATASPPTPSAQAPGSSYPPHMQVLLPALSPTMTMGTVQRWEKKVGEKLSEGDLLAEIETDKATIGFEVQEEGYLAKILVPEGTRDVPLGTPLCIIVEKEADISAFADYRPTEVTDLKPQVPPPTPPPVAAVPPTPQPLAPTPSAPCPATPAGPKGRVFVSPLAKKLAVEKGIDLTQVKGTGPDGRITKKDIDSFVPSKVAPAPAAVVPPTGPGMAPVPTGVFTDIPISNIRRVIAQRLMQSKQTIPHYYLSIDVNMGEVLLVRKELNKILEGRSKISVNDFIIKASALACLKVPEANSSWMDTVIRQNHVVDVSVAVSTPAGLITPIVFNAHIKGVETIANDVVSLATKAREGKLQPHEFQGGTFTISNLGMFGIKNFSAIINPPQACILAIGASEDKLVPADNEKGFDVASMMSVTLSCDHRVVDGAVGAQWLAEFRKYLEKPITMLL
For the molecule B1, the binding result is given as “binds”.
